Experimental data: paper PMC9371678
These are yes or no findings as the source states them, for the method shown. In cells and extracts the contact can be indirect. Some binding calls cover weakened binding; strength is not graded here.

Amino acid sequences for entries named in this document (tags omitted). Residues count along the entry.
UniProt Q03431, residues 27-593: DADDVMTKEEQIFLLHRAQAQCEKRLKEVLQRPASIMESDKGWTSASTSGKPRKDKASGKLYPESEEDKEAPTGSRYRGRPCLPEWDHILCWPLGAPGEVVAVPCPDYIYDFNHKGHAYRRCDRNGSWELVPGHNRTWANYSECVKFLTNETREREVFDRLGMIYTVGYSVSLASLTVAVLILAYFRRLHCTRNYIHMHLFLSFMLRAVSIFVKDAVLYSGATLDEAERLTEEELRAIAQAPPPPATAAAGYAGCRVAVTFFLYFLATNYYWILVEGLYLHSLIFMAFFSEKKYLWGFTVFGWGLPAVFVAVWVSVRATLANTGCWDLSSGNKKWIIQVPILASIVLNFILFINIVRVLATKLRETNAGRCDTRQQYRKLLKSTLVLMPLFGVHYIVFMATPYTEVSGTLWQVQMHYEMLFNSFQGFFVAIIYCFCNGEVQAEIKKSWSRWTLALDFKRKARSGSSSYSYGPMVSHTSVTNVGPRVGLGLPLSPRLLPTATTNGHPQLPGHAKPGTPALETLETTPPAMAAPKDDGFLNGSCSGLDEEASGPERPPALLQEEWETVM
UniProt O60895, residues 43-175: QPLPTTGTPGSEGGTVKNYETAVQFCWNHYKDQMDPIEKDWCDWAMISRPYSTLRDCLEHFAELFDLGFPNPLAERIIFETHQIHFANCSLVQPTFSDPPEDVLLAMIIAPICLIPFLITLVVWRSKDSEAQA
UniProt P32121: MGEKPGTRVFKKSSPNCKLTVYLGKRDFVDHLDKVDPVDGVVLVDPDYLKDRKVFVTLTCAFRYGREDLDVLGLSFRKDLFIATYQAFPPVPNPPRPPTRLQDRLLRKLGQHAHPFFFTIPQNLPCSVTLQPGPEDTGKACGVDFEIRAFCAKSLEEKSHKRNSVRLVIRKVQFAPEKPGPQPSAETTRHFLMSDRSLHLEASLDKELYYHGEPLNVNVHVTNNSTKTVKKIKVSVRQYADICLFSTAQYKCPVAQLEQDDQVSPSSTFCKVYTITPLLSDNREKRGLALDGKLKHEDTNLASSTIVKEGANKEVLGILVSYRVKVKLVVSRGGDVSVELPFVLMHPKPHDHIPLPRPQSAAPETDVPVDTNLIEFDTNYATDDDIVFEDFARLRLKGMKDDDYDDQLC

What was measured:
[1] = molecular target: HA-PTH1R_(mCitrine) (human) (UniProt Q03431); assay: FRET or BRET; FRET acceptor photobleaching by confocal microscopy at the membrane of intact HEK293 cells transiently coexpressing mCitrine-tagged acceptor and mTurquoise2-tagged donor; FRET buffer pH 7.4 with 0.1% BSA, room temperature
β2AR_(mCitrine) = β2AR_(mCitrine) (UniProt P07550); assay: as above
[2] = molecular target: HA-PTH1R_(NanoLuc) (human) (UniProt Q03431); assay: FRET or BRET; BRET in a plate reader, intact HEK293T cells coexpressing NanoLuc-tagged receptor (donor) and mVenus- or YFP-tagged partner (acceptor), with or without RAMP2wt; stimulated with PTH or PTHrP (PTH1R) or isoprenaline (β2AR); 37 °C, FRET buffer with furimazine

Row | Substance | binding [1] | binding (β2AR_(mCitrine)) | binding [2]
1 | RAMP2mT2 (from UniProt O60895 43-175) | binds | no binding | –
2 | β-arrestin2_(mVenus) (from UniProt P32121 1-409) | – | – | binds
